According to US9012493B2, “1-heterodiene derivative and pest control agent” (Nippon Soda Co., Ltd., priority 2009, dated 2015):
Some results were stated once for a whole list of compounds, not compound by compound.

Assays:
Format in all cases: in vivo
[1] = tested on: Autogenic House Mosquito (Culex Pipiens Molestus Forskal); experiment: Efficacy test against autogenic house mosquito larvae, 96-well microplate; details: final concentration of the compound 0.001%, larvae 1 day after hatching, after 2 days, 25° C.
[2] = tested on: German Cockroach (Blattella Germanica); experiment: Efficacy test against German cockroach, treated artificial diet (Test Example 6-1); details: 2,000 ppm acetone solution, 250 μL on 0.5 g artificial diet for rat, first instar larvae, after 5 days
[3] = tested on: House Fly (Musca Domestica); experiment: Efficacy test against house fly, sugar water on absorbent cotton; details: 125 ppm in 10% sugar water, female adults, after 3 days

SMILES | insecticidal rate [1] [%] | insecticidal rate [2] [%] | insecticidal rate [3] [%]
C=C1SC(=Nc2ccc(C)cc2)C(=CSc2ccc(C(C)C)cc2)CC1(C)C [Compound 2-151] | ≥ 90 | – | –
C=C1SC(=Nc2cc(OC)cc(OC)c2)C(=CSc2ccccc2)CC1(C)C [Compound 2-38] | ≥ 90 | – | –
C=C1SC(=Nc2ccc(C)cc2)C(=CSc2ccc(C(F)(F)F)cc2)CC1(C)C [Compound 2-90] | ≥ 90 | – | –
C=C1SC(=Nc2ccc(C)cc2)C(=CSc2ccccc2)CC1CC (stereo not shown) [Compound 2-68] | ≥ 90 | ≥ 80 | ≥ 80
C=C1SC(=Nc2ccc(C)c(C)c2)C(=CSc2cccs2)CC1(C)C [Compound 2-149] | ≥ 90 | – | –
C=C1SC(=Nc2ccc(C)c(C)c2)C(=CSc2ccccc2)CC1(C)C [Compound 2-148] | ≥ 90 | – | –
C=C1SC(=Nc2ccc(C)cc2)C(=CSc2ccc(F)cc2)CC1(C)C [Compound 2-48] | ≥ 90 | ≥ 80 | ≥ 80
C=C1SC(=Nc2ccc(C)cc2)C(=CSc2sccc2C)CC1(C)C [Compound 2-104] | ≥ 90 | – | –
C=C1SC(=Nc2ccc(C)cc2)C(=CSc2cccs2)CC1C (stereo not shown) [Compound 2-77] | ≥ 90 | – | –
C=C1SC(=Nc2ccc(C)cc2)C(=CSc2ccccc2C(F)(F)F)CC1(C)C [Compound 2-100] | ≥ 90 | – | –
C=C1SC(=Nc2ccc(OC)cc2)C(=CSc2ccsc2)CC1(C)C [Compound 2-81] | ≥ 90 | ≥ 80 | ≥ 80
C=C1SC(=Nc2ccc(OC)cc2C)C(=CSc2ccc(F)cc2)CC1(C)C [Compound 2-41] | ≥ 90 | – | ≥ 80
C=C1SC(=Nc2ccc(C)cc2)C(=CSc2ccc(Cl)cc2)CC1(C)C (mixture of isomers) [Compound 2-87] | ≥ 90 | ≥ 80 | ≥ 80
C=C1SC(=Nc2ccc(OC)cc2)C(=CSc2cccs2)CC1(C)C [Compound 4-4] | ≥ 90 | – | –
C=C1SC(=Nc2ccc(C)cc2)C(=CSc2ccc(C)cc2)CC1(C)C (mixture of isomers) [Compound 2-86] | ≥ 90 | ≥ 80 | ≥ 80
C=C1SC(=Nc2ccc(C)cc2)C(=CSc2ccccc2F)CC1(C)C (mixture of isomers) [Compound 2-85] | ≥ 90 | ≥ 80 | ≥ 80
C=C1SC(=Nc2ccc(Cl)cc2)C(=CSc2ccccc2)CC1(C)C [Compound 2-12] | ≥ 90 | – | –
C=C1SC(=Nc2ccc(C)cc2)C(=CSc2ccc(F)cc2F)CC1(C)C [Compound 2-124] | ≥ 90 | – | –
C=C1SC(=Nc2ccc(C)cc2C)C(=CSc2ccccc2)CC1(C)C [Compound 2-64] | ≥ 90 | ≥ 80 | ≥ 80
C=C1SC(=Nc2ccc(OC)cc2)C(=CSc2ccc(C#N)cc2)CC1(C)C [Compound 2-70] | ≥ 90 | – | –
C=C1SC(=Nc2ccc(C)cc2)C(=CSc2ccsc2)CC1(C)C [Compound 2-78] | ≥ 90 | ≥ 80 | ≥ 80
C=C1SC(=Nc2ccc(OC)cc2)C(=CSc2ccc(Br)s2)CC1(C)C [Compound 2-117] | ≥ 90 | – | –

SMILES | insecticidal rate [1] [%] | insecticidal rate [2] [%] | insecticidal rate [3] [%]
C=C1SC(=Nc2ccc(C)cc2)C(=CSc2ccc(C#N)cc2)CC1(C)C [Compound 2-72] | ≥ 90 | – | –
CC(C)=C1CCC(=CSc2ccc(F)cc2)C(=Nc2ccc(C)cc2)S1 (mixture of isomers) [Compound 6-2] | ≥ 90 | – | –
C=C1SC(=Nc2ccc(C)cc2)C(=CSc2ccc(OC)s2)CC1(C)C [Compound 2-80] | ≥ 90 | ≥ 80 | ≥ 80
C=C1SC(=Nc2ccc(Cl)c(Cl)c2)C(=CSc2ccccc2)CC1(C)C [Compound 2-35] | ≥ 90 | – | –
C=C1SC(=Nc2ccc(C)cc2)C(=CSc2ccccc2)CC1C (stereo not shown) [Compound 2-76] | ≥ 90 | ≥ 80 | ≥ 80
C=C1SC(=Nc2ccc(OC)cc2)C(=CSc2ccc([Si](C)(C)C)s2)CC1(C)C [Compound 2-103] | ≥ 90 | – | –
C=C1SC(=Nc2cccc(C(F)(F)F)c2)C(=CSc2ccccc2)CC1(C)C [Compound 2-36] | ≥ 90 | – | –
C=C1SC(=Nc2ccc(Cl)cc2)C(=CSc2ccc(F)cc2)CC1(C)C [Compound 2-13] | ≥ 90 | – | –
C=C1SC(=Nc2ccc(OC)c(C)c2)C(=CSc2ccccc2)CC1(C)C [Compound 2-34] | ≥ 90 | – | –
C=C1SC(=Nc2ccc(C)cc2)C(=CSc2cccc(C(F)(F)F)c2)CC1(C)C [Compound 2-99] | ≥ 90 | – | –
C=C1SC(=Nc2ccc(C)cc2)C(=CSc2cccc(C)c2)CC1(C)C [Compound 2-110] | ≥ 90 | – | –
C=C1SC(=Nc2ccc(OC)cc2)C(=CSc2ccc(C)s2)CC1(C)C [Compound 2-83] | ≥ 90 | ≥ 80 | ≥ 80
C=C1SC(=Nc2ccc(C)cc2)C(=CSc2ccc3ccccc3n2)CC1(C)C [Compound 2-113] | ≥ 90 | – | –
C=C1SC(=Nc2ccc(C)cc2)C(=CSc2cccc(OC)c2)CC1(C)C [Compound 2-20] | ≥ 90 | ≥ 80 | ≥ 80
C=C1SC(=Nc2ccc(C)cc2)C(=CSc2cccc(Br)c2)CC1(C)C [Compound 2-101] | ≥ 90 | – | –
C=C1SC(=Nc2ccc(C)cc2)C(=CSc2ccccc2C)CC1(C)C [Compound 2-111] | ≥ 90 | – | –
C=C1SC(=Nc2ccc(C)c(C)c2)C(=CSc2ccc(F)cc2)CC1(C)C [Compound 2-150] | ≥ 90 | – | –
CC/C=C1/CCC(=C\Sc2ccccc2)/C(=N/c2ccc(Cl)cc2)S1 [Compound 2-3] | ≥ 90 | – | –
C=C1CCC(=CSc2ccccc2)C(=Nc2ccc(C)cc2)S1 [Compound 2-4] | ≥ 90 | – | –
C=C1SC(=Nc2ccc(OC)cc2)C(=CSc2ccc(F)cc2)CC1(C)C [Compound 2-46] | ≥ 90 | – | ≥ 80
C=C1CCC(=CSc2ccc(F)cc2)C(=Nc2ccc(C)cc2)S1 [Compound 2-6] | ≥ 90 | ≥ 80 | ≥ 80
C=C1SC(=Nc2ccc(C)cc2)C(=CSc2cccc(C(C)=O)c2)CC1(C)C [Compound 2-105] | ≥ 90 | – | –

SMILES | insecticidal rate [1] [%] | insecticidal rate [2] [%] | insecticidal rate [3] [%]
C=C1SC(=Nc2ccc(C)cc2OC)C(=CSc2ccccc2)CC1(C)C [Compound 2-59] | ≥ 90 | – | –
C=C1SC(=Nc2ccc(C)cc2)C(=CSc2c(C)cccc2C)CC1(C)C [Compound 2-119] | ≥ 90 | – | –
C=C1SC(=Nc2ccc(C)cc2)C(=CSc2c(F)cccc2F)CC1(C)C [Compound 2-114] | ≥ 90 | – | –
C=C1CCC(=CSc2ccccc2)C(=[NH+]c2ccc(C)cc2)S1.F[B-](F)(F)F [Compound 2-14] | ≥ 90 | – | –
C=C1SC(=Nc2ccc(C)cc2)C(=CSc2ccc(C)s2)CC1(C)C [Compound 2-79] | ≥ 90 | ≥ 80 | ≥ 80
C=C1SC(=Nc2ccc(C)cc2)C(=CSc2ccccc2)CC1CCC (stereo not shown) [Compound 2-75] | ≥ 90 | ≥ 80 | ≥ 80
C=C1SC(=Nc2ccc(C)cc2)C(=CSc2ccccc2Br)CC1(C)C [Compound 2-102] | ≥ 90 | – | –
C=C1SC(=Nc2ccc(OC)cc2)C(=CSc2ccccc2OC)CC1(C)C [Compound 2-49] | ≥ 90 | – | –
C=C1SC(=Nc2ccc(OC)cc2C)C(=CSc2ccccc2)CC1(C)C [Compound 2-40] | ≥ 90 | – | ≥ 80
C=C1SC(=Nc2ccc(C)cc2)C(=CSc2nc3ccccc3s2)CC1(C)C [Compound 2-94] | ≥ 90 | – | –
CC(C)=C1CCC(=CSc2ccccc2)C(=Nc2ccc(C)cc2)S1 (mixture of isomers) [Compound 6-1] | ≥ 90 | – | ≥ 80
C=C1SC(=Nc2ccc(OC)cc2)C(=CSc2cccs2)CC1(C)C [Compound 2-51] | – | ≥ 80 | ≥ 80
C=C1SC(=Nc2ccc(C)cc2)C(=CSc2ccccc2)CC1c1ccccc1 (racemic) [Compound 2-15] | ≥ 90 | – | –
C=C1SC(=Nc2ccc(C)cc2)C(=CSc2ccccc2)CC12CCCCC2 [Compound 2-17] | ≥ 90 | ≥ 80 | ≥ 80
C=C1SC(=Nc2ccc(C)cc2)C(=CSc2cccnc2)CC1(C)C (mixture of isomers) [Compound 6-6] | ≥ 90 | – | –
C=C1SC(=Nc2ccc(C)cc2)C(=CSc2cccc(F)c2)CC1(C)C (mixture of isomers) [Compound 2-84] | ≥ 90 | – | –
C=C1SC(=Nc2ccc(C)cc2)C(=CSc2cccs2)CC1(C)C [Compound 2-71] | ≥ 90 | – | –
C=C1SC(=Nc2ccc(C)cc2)C(=CSc2ccncc2)CC1(C)C [Compound 2-92] | ≥ 90 | – | –
C=C1SC(=Nc2ccc(C)cc2)C(=CSc2cccc3ccccc23)CC1(C)C (mixture of isomers) [Compound 2-89] | ≥ 90 | – | –
C=C1SC(=Nc2ccc(C)cc2)C(=CSc2cccc(C#N)c2)CC1(C)C [Compound 2-106] | ≥ 90 | – | –
C=C1SC(=Nc2ccc(C)cc2)C(=CSc2ccccc2)CC12CCOCC2 [Compound 2-56] | ≥ 90 | – | –
C=C1SC(=Nc2ccccc2OC)C(=CSc2ccccc2)CC1(C)C [Compound 2-27] | ≥ 90 | – | –
